Laboratory results: PubChem BioAssay AID652259 (Drosophila RNAi Screening Center, 2013)

- Purpose: 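Genome-wide hunt for genes that control Wingless pathway activity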 (primary screen)
- Cell system: Drosophila clone 8 imaginal disc epithelial cells
- Reagents: long dsRNA against Drosophila genes
- Treatment: pathway stimulated by co-transfected Wingless expression plasmid
- Measured: 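Dual luciferase reads per well after Wingless plasmid stimulation: reporter firefly light and Renilla control light; activity is firefly divided by Renilla, a ratio not deposited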
- Reading the numbers: firefly reporter light: higher = more Wg reporter light, before normalisation; Renilla control light: higher = more transfected or surviving cells
- Rule for the call: 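Strong candidates differ from their plate mean by at least two out of four per-plate statistical tests; weak candidates meet just one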
- Calls: active = candidate regulator (raises or lowers reporter); inactive = not a candidate
In all, the deposit lists about 22,000 reagents; shown is an unselected part of those with a known target gene and a result. In the full data, 233 (1.1%) were called active. 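Light values are raw, unnormalised plate reads; the ratio scores behind the reporter calls were not deposited.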 Unmarked entries are inactive. A plus sign joins genes that one reagent is predicted to hit. The record does not give: the amount of reagent, the time to read-out, the dose of the treatment.

CG42542 [DRSC15549] | firefly reporter light, replicate 1 = 5684; Renilla control light, replicate 1 = 2471
CG42542 [DRSC22264] | firefly reporter light, replicate 1 = 3.61e5; firefly reporter light, replicate 2 = 4.52e5; Renilla control light, replicate 1 = 1.56e5; Renilla control light, replicate 2 = 1.71e5
Ndae1 [DRSC00975] | firefly reporter light, replicate 1 = 18711; Renilla control light, replicate 1 = 10544
Ndae1 [DRSC02770] | firefly reporter light, replicate 1 = 10214; Renilla control light, replicate 1 = 4426
l(3)72Dn [DRSC10468] | firefly reporter light, replicate 1 = 4452; Renilla control light, replicate 1 = 2059
CG3164 [DRSC00572] | firefly reporter light, replicate 1 = 1984; firefly reporter light, replicate 2 = 4992; Renilla control light, replicate 1 = 996; Renilla control light, replicate 2 = 2008
sigmar [DRSC04449] | firefly reporter light, replicate 1 = 13524; Renilla control light, replicate 1 = 3639
TkR99D [DRSC16881] | firefly reporter light, replicate 1 = 9224; Renilla control light, replicate 1 = 2937
CR40450 + CG32767 [DRSC18387] | firefly reporter light, replicate 1 = 5913; firefly reporter light, replicate 2 = 5883; Renilla control light, replicate 1 = 1234; Renilla control light, replicate 2 = 1200
CG5335 [DRSC06931] | firefly reporter light, replicate 1 = 11205; Renilla control light, replicate 1 = 3033
CG5096 [DRSC02813] | firefly reporter light, replicate 1 = 2968; firefly reporter light, replicate 2 = 5195; Renilla control light, replicate 1 = 946; Renilla control light, replicate 2 = 2316
mRpS23 [DRSC01348] | firefly reporter light, replicate 1 = 25542; Renilla control light, replicate 1 = 12392

Look-ups from the list.
Under “Renilla control light, replicate 2”, CG42542 [DRSC22264] shows 1.71e5
For “firefly reporter light, replicate 1”, sigmar [DRSC04449] shows 13524
